# The supplement of paper PMC8728848
# The other results are listed elsewhere or left out.
# B1: Drgal1 (Danio rerio) (protein)
# chain: MAGVLIQNMSFKVGQTLTITGVPKPDSTNFAINIGHSPEDIALHMNPRFDAHGDQCTIVCNSFQSGSWCEEHRDDNFPFIQDKEFQIKITFTNEEFLVTLPDGSEIHFPNRQGSEKYKYMYFEGEVRIQGVEIK
# Key:
# Assay in all cases: glycan array binding signal (z-score within array); higher = stronger binding
# Conditions in all cases: glycan notation: IUPAC condensed, linker removed
# [1] = target: Gal3S(b1-3)[Fuc(a1-4)]GlcNAc
# Outline: (§1)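 The Consortium for Functional Glycomics database supplied 3228 glycan arrays, of which those lacking an available protein sequence were dropped. The binding signal, a within-array Z-score, was averaged across arrays of the same protein sequence and across linkers. Negative scores can be read as non-binding.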
# [2] = target: Gal3S(b1-4)Glc
# Outline: as §1
# [3] = target: Gal3S(b1-4)Glc6S
# Outline: as §1
# [4] = target: Gal3S(b1-4)GlcNAc
# Outline: as §1
# [5] = target: Gal3S(b1-4)[Fuc(a1-3)]Glc6S
# Outline: as §1
# [6] = target: Gal3S(b1-4)[Fuc(a1-3)]GlcNAc
# Outline: as §1
# [7] = target: Gal3S(b1-4)[Fuc(a1-3)]GlcNAc6S
# Outline: as §1
# [8] = target: Gal3S4S(b1-4)GlcNAc
# Outline: as §1
# [9] = target: Gal3S6S(b1-4)GlcNAc
# Outline: as §1
# [10] = target: Gal3S6S(b1-4)GlcNAc6S
# Outline: as §1
# [11] = target: Gal4S(b1-4)GlcNAc
# Outline: as §1
# [12] = target: Gal4S6S(b1-4)GlcNAc
# Outline: as §1
# [13] = target: Gal6P(b1-4)GlcNAc
# Outline: as §1
# [14] = target: Gal6S(b1-3)GlcNAc
# Outline: as §1
# [15] = target: Gal6S(b1-3)GlcNAc6S
# Outline: as §1
# [16] = target: Gal6S(b1-4)Glc
# Outline: as §1
# [17] = target: Gal6S(b1-4)Glc6S
# Outline: as §1
# [18] = target: Gal6S(b1-4)GlcNAc
# Outline: as §1
# [19] = target: Gal6S(b1-4)GlcNAc6S
# Outline: as §1
# [20] = target: GalNAc(a1-3)Gal
# Outline: as §1
# [21] = target: GalNAc(a1-3)GalNAc
# Outline: as §1
# [22] = target: GalNAc(a1-3)GalNAc(b1-3)Gal(a1-4)Gal(b1-4)Glc
# Outline: as §1
# [23] = target: GalNAc(a1-3)GalNAc(b1-3)Gal(a1-4)Gal(b1-4)GlcNAc
# Outline: as §1
# [24] = target: GalNAc(b1-3)Gal
# Outline: as §1
# [25] = target: GalNAc(b1-3)Gal(a1-4)Gal(b1-4)GlcNAc
# Outline: as §1
# [26] = target: GalNAc(b1-3)Gal(a1-4)Gal(b1-4)GlcNAc(b1-3)Gal(b1-4)Glc
# Outline: as §1
# [27] = target: GalNAc(b1-3)Gal(a1-6)Gal(b1-4)Glc
# Outline: as §1
# [28] = target: GalNAc(b1-3)GalNAc
# Outline: as §1
# [29] = target: GalNAc(b1-3)GlcNAc
# Outline: as §1
# [30] = target: GalNAc(b1-4)Gal(b1-4)Glc
# Outline: as §1
# [31] = target: GalNAc(b1-4)GlcNAc
# Outline: as §1
# [32] = target: GalNAc(b1-4)GlcNAc(b1-2)Man
# Outline: as §1
# [33] = target: GalNAc(b1-4)GlcNAc(b1-2)Man(a1-3)[GalNAc(b1-4)GlcNAc(b1-2)Man(a1-6)]Man(b1-4)GlcNAc(b1-4)GlcNAc
# Outline: as §1
# [34] = target: GalNAc(b1-4)GlcNAc(b1-3)GalNAc(b1-4)GlcNAc
# Outline: as §1
# [35] = target: GalNAc(b1-4)GlcNAc6S
# Outline: as §1
# [36] = target: GalNAc(b1-6)GalNAc
# Outline: as §1
# [37] = target: GalNAc3S(b1-4)GlcNAc
# Outline: as §1
# [38] = target: GalNAc3S(b1-4)GlcNAc3S
# Outline: as §1
# [39] = target: GalNAc3S(b1-4)[Fuc(a1-3)]GlcNAc
# Outline: as §1
# [40] = target: GalNAc4S6S(b1-4)GlcNAc
# Outline: as §1
# [41] = target: GalNAc6S(b1-4)GlcNAc
# Outline: as §1
# [42] = target: Glc(a1-4)Glc
# Outline: as §1
# [43] = target: Glc(a1-4)Glc(a1-4)Glc(a1-4)Glc
# Outline: as §1
# [44] = target: Glc(a1-6)Glc(a1-6)Glc
# Outline: as §1
# [45] = target: Glc(a1-6)Glc(a1-6)Glc(a1-6)Glc
# Outline: as §1
binder,measurement,setting,value
B1,glycan array binding signal (z-score),[1],-0.221
same,glycan array binding signal (z-score),[2],0.061
same,glycan array binding signal (z-score),[3],0.209
same,glycan array binding signal (z-score),[4],-0.112
same,glycan array binding signal (z-score),[5],0.825
same,glycan array binding signal (z-score),[6],-0.33
same,glycan array binding signal (z-score),[7],0.275
same,glycan array binding signal (z-score),[8],-0.506
same,glycan array binding signal (z-score),[9],0.261
same,glycan array binding signal (z-score),[10],1.16
same,glycan array binding signal (z-score),[11],-0.088
same,glycan array binding signal (z-score),[12],-0.349
same,glycan array binding signal (z-score),[13],-0.758
same,glycan array binding signal (z-score),[14],-0.889
same,glycan array binding signal (z-score),[15],-0.095
same,glycan array binding signal (z-score),[16],0.281
same,glycan array binding signal (z-score),[17],-0.167
same,glycan array binding signal (z-score),[18],-0.993
same,glycan array binding signal (z-score),[19],-0.637
same,glycan array binding signal (z-score),[20],-0.226
same,glycan array binding signal (z-score),[21],0.206
same,glycan array binding signal (z-score),[22],-0.584
same,glycan array binding signal (z-score),[23],0.088
same,glycan array binding signal (z-score),[24],0.396
same,glycan array binding signal (z-score),[25],1.19
same,glycan array binding signal (z-score),[26],0.061
same,glycan array binding signal (z-score),[27],-0.416
same,glycan array binding signal (z-score),[28],0.158
same,glycan array binding signal (z-score),[29],-0.433
same,glycan array binding signal (z-score),[30],-0.603
same,glycan array binding signal (z-score),[31],3.67
same,glycan array binding signal (z-score),[32],-0.681
same,glycan array binding signal (z-score),[33],0.413
same,glycan array binding signal (z-score),[34],-0.487
same,glycan array binding signal (z-score),[35],0.025
same,glycan array binding signal (z-score),[36],-0.348
same,glycan array binding signal (z-score),[37],-0.268
same,glycan array binding signal (z-score),[38],-0.279
same,glycan array binding signal (z-score),[39],0.012
same,glycan array binding signal (z-score),[40],-0.11
same,glycan array binding signal (z-score),[41],-0.506
same,glycan array binding signal (z-score),[42],-0.118
same,glycan array binding signal (z-score),[43],0.069
same,glycan array binding signal (z-score),[44],-0.376
same,glycan array binding signal (z-score),[45],0.377

# Some of the entries so far, tab-delimited:
binder	measurement	setting	value
B1	glycan array binding signal (z-score)	[2]	0.061
same	glycan array binding signal (z-score)	[24]	0.396
